Experiment: general procedure: Fmoc solid-phase peptide synthesis; 2-chlorotrityl chloride resin; HATU/DIPEA; DIC/OxymaPure; HBTU/DIPEA (conjugations); carbonyldiimidazole/DIPEA
Settings: whole synthesis

Substance “H-D-Phe-D-Phe-wCap-Lys-CO-Glu (OtBu)-OtBu” has a crude yield of 80%.

— patent US20250011362 (published 2025)
